Values from PubChem BioAssay AID1117269 (University of Michigan, 2014).

- Test: 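Which kinase knockdowns increase BTR reporter light after TGF-beta stimulation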 (primary screen)
- Cells: human A549 lung cancer and 1833 breast cancer (MDA-MB-231-derived) cell lines carrying a stable BTR luciferase reporter
- Reagent: siRNA pool against human genes
- Time to read-out: 72 h after transfection, then 1 h TGF-beta before the read
- Treatment: TGF-beta 10 ng/mL added one hour before luciferin and read-out
- Measurement: 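Live-cell BTR luciferase signal at 72 h after transfection and 1 h of TGF-beta at 10 ng/mL, fold versus scrambled siRNA, triplicate mean for each line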
- Scale: fold over scrambled siRNA, A549 and fold over scrambled siRNA, 1833: higher = more reporter light, weaker TGF-beta receptor signalling
- Active means: 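Hit in either line counts as active; per-line hits lie above an upper limit from quartiles of averaged log fold values, in plate and screen-wide analyses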
- Calls: active = hit in at least one line; inactive = hit in neither line
In all, the deposit lists 714 reagents; below is an unselected part. Over the whole deposit, 49 (6.9%) got an active call. 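Active means a hit in at least one line; per-line hit columns show which; some siRNA pools appear more than once.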 Not stated in the record: the amount of reagent.

| target | fold over scrambled siRNA, A549 | fold over scrambled siRNA, 1833 | hit in A549 | hit in 1833 | activity call |
| --- | --- | --- | --- | --- | --- |
| PDK1 (GeneID 5163) | 1.14 | 3.62 | not a hit in A549 | not a hit in 1833 | inactive |
| WNK1 (GeneID 65125) | 1.43 | 3.48 | not a hit in A549 | not a hit in 1833 | inactive |
| TWF2 (GeneID 11344) | 5.33 | 4.56 | not a hit in A549 | not a hit in 1833 | inactive |
| MST1R (GeneID 4486) | 1.29 | 3.76 | not a hit in A549 | not a hit in 1833 | inactive |
| BRSK2 (GeneID 9024) | 2.07 | 3.84 | not a hit in A549 | not a hit in 1833 | inactive |
| CDK4 (GeneID 1019) | 1.67 | 6.57 | not a hit in A549 | not a hit in 1833 | inactive |
| MAP4K2 (GeneID 5871) | 5.1 | 4.29 | not a hit in A549 | not a hit in 1833 | inactive |
| CIT (GeneID 11113) | 0.875 | 11.5 | not a hit in A549 | hit in 1833 | – |
| FGFR2 (GeneID 2263) | 2.33 | 4.47 | not a hit in A549 | not a hit in 1833 | inactive |
| STK26 (GeneID 51765) | 2.1 | 3.24 | not a hit in A549 | not a hit in 1833 | inactive |
| ARAF (GeneID 369) | 1.98 | 2.61 | not a hit in A549 | not a hit in 1833 | inactive |
| PLK1 (GeneID 5347) | 0.429 | 4.1 | not a hit in A549 | not a hit in 1833 | inactive |
| PRKAG3 (GeneID 53632) | 3.43 | 6.22 | not a hit in A549 | not a hit in 1833 | inactive |
| CILK1 (GeneID 22858) | 1.5 | 3.88 | not a hit in A549 | not a hit in 1833 | inactive |
| MAP3K3 (GeneID 4215) | 1 | 1.73 | not a hit in A549 | not a hit in 1833 | inactive |
| ETNK1 (GeneID 55500) | 1.37 | 1.2 | not a hit in A549 | not a hit in 1833 | inactive |
| MAP3K1 (GeneID 4214) | 1.98 | 2 | not a hit in A549 | not a hit in 1833 | inactive |
| IP6K3 (GeneID 117283) | 1.14 | 3.67 | not a hit in A549 | not a hit in 1833 | inactive |
| TAB1 (GeneID 10454) | 0.81 | 2.36 | not a hit in A549 | not a hit in 1833 | inactive |
| MOS (GeneID 4342) | 1.52 | 1.76 | not a hit in A549 | not a hit in 1833 | inactive |
| ERN2 (GeneID 10595) | 1.48 | 1.33 | not a hit in A549 | not a hit in 1833 | inactive |
| NTRK3 (GeneID 4916) | 2.2 | 3.39 | not a hit in A549 | not a hit in 1833 | inactive |
| STRADB (GeneID 55437) | 3 | 9.23 | not a hit in A549 | not a hit in 1833 | inactive |
| PRKCSH (GeneID 5589) | 1.29 | 2.08 | not a hit in A549 | not a hit in 1833 | inactive |
| ERBB4 (GeneID 2066) | 1.33 | 2.9 | not a hit in A549 | not a hit in 1833 | inactive |
| PIM3 (GeneID 415116) | 1.81 | 0.481 | not a hit in A549 | not a hit in 1833 | inactive |
| TNK1 (GeneID 8711) | 1.57 | 5.47 | not a hit in A549 | not a hit in 1833 | inactive |
| CAMK2D (GeneID 817) | 3.71 | 7.12 | not a hit in A549 | not a hit in 1833 | inactive |
| PIK3R1 (GeneID 5295) | 1.76 | 2.62 | not a hit in A549 | not a hit in 1833 | inactive |
| TAOK1 (GeneID 57551) | 1.41 | 1 | not a hit in A549 | not a hit in 1833 | inactive |
| PRKACB (GeneID 5567) | 4.23 | 3.07 | not a hit in A549 | not a hit in 1833 | inactive |
| PRKAR2B (GeneID 5577) | 2.33 | 1.71 | not a hit in A549 | not a hit in 1833 | inactive |
| DYRK1A (GeneID 1859) | 2.72 | 2.48 | not a hit in A549 | not a hit in 1833 | inactive |
| RPS6KA2 (GeneID 6196) | 2.02 | 1.52 | not a hit in A549 | not a hit in 1833 | inactive |
| TSSK4 (GeneID 283629) | 1.96 | 2.52 | not a hit in A549 | not a hit in 1833 | inactive |
| DCLK2 (GeneID 166614) | 0.667 | 1.52 | not a hit in A549 | not a hit in 1833 | inactive |
| PDIK1L (GeneID 149420) | 3.01 | 1.29 | not a hit in A549 | not a hit in 1833 | inactive |
| SPHK2 (GeneID 56848) | 0.857 | 2.34 | not a hit in A549 | not a hit in 1833 | inactive |
| MAP3K4 (GeneID 4216) | 1.12 | 1.48 | not a hit in A549 | not a hit in 1833 | inactive |

Laid out differently: results already given
{"target":"BRSK2 (GeneID 9024)","fold over scrambled siRNA, A549":2.07,"fold over scrambled siRNA, 1833":3.84,"hit in A549":"not a hit in A549","hit in 1833":"not a hit in 1833","activity call":"inactive"}
{"target":"CDK4 (GeneID 1019)","fold over scrambled siRNA, A549":1.67,"fold over scrambled siRNA, 1833":6.57,"hit in A549":"not a hit in A549","hit in 1833":"not a hit in 1833","activity call":"inactive"}
{"target":"MAP4K2 (GeneID 5871)","fold over scrambled siRNA, A549":5.1,"fold over scrambled siRNA, 1833":4.29,"hit in A549":"not a hit in A549","hit in 1833":"not a hit in 1833","activity call":"inactive"}
{"target":"CIT (GeneID 11113)","fold over scrambled siRNA, A549":0.875,"fold over scrambled siRNA, 1833":11.5,"hit in A549":"not a hit in A549","hit in 1833":"hit in 1833"}
{"target":"FGFR2 (GeneID 2263)","fold over scrambled siRNA, A549":2.33,"fold over scrambled siRNA, 1833":4.47,"hit in A549":"not a hit in A549","hit in 1833":"not a hit in 1833","activity call":"inactive"}
{"target":"STK26 (GeneID 51765)","fold over scrambled siRNA, A549":2.1,"fold over scrambled siRNA, 1833":3.24,"hit in A549":"not a hit in A549","hit in 1833":"not a hit in 1833","activity call":"inactive"}
